The subject of the assay is L1210 leukemia ip in BDF1 mice, survival T/C. As to the kind of experiment: NCI In Vivo Anticancer Drug Screen. Data for tumor model L1210 Leukemia (intraperitoneal) in B6D2F1 (BDF1) mice. The note with it: T/C endpoint: mean survival time, higher T/C = longer survival.
[1] abbreviates: dose: 100.0 mg/kg/injection, schedule: Q04DX003 (ip), vehicle: saline.
Where [2] appears, read: dose: 200.0 mg/kg/injection, schedule: Q04DX003 (ip), vehicle: saline.
Setting [3] is: dose: 400.0 mg/kg/injection, schedule: Q04DX003 (ip), vehicle: saline.
Setting [4] is: dose: 100.0 mg/kg/injection, schedule: Q01DX001 (ip), vehicle: carboxymethylcellulose (CMC).
Where [5] appears, read: dose: 200.0 mg/kg/injection, schedule: Q01DX001 (ip), vehicle: carboxymethylcellulose (CMC).
[6] abbreviates: dose: 400.0 mg/kg/injection, schedule: Q01DX001 (ip), vehicle: carboxymethylcellulose (CMC).
Where [7] appears, read: dose: 200.0 mg/kg/injection, schedule: Q01DX001 (ip), vehicle: saline.
Where [8] appears, read: dose: 300.0 mg/kg/injection, schedule: Q01DX001 (ip), vehicle: saline.
[9] abbreviates: dose: 400.0 mg/kg/injection, schedule: Q04DX002 (ip), vehicle: Klucel (hydroxypropylcellulose) (HPC).

The list shows only some results of the screen, not a fair sample: it is rich in T/C values a quarter to a half above the control, in often repeated tests (any T/C) and in doses without a T/C. Other doses and runs of a compound stand elsewhere. T/C: endpoint of the treated group in % of that of the vehicle group. Some entries give survivors of the animals treated and no T/C: the source holds a T/C of zero for them, seemingly a mark for toxic or unscored doses. Some survivor counts are full or nearly so, which does not show that the dose was tolerated: the source hardly ever lists a survival T/C far under the control, and the zero likely stands for such cases as well. Survivors were counted at the toxicity check, usually on the fifth day, unless a day is given; later deaths do not show. Schedules are NCI's codes, taken here to give the interval after Q, in days (D) or hours (H), and the number of doses after X. Some schedule codes hold Z or #, which are not explained here. For survival time, the PubChem record calls one and a half times the control and up active, and a quarter to a half above the control has no call in these data; cut-offs in other NCI protocols can differ. Some T/C values carry the count of animals alive at the toxicity check (mostly the fifth day); without a count, all were alive then.

These results are taken from PubChem BioAssay AID248 (DTP/NCI, 2004).

Take `OCC1OC(n2ccc3c2ncn2nnnc32)C(O)C1O` (configuration not stated): the survivor count was 5 of 6 (dose: 50.0 mg/kg/injection, schedule: Q01DX009 (ip), vehicle: saline); 5 of 6 (dose: 75.0 mg/kg/injection, schedule: Q01DX009 (ip), vehicle: saline); 6 of 6 under setting [1]; 6 of 6 under setting [2]; 1 of 6 under setting [3].
On to `COc1ccc(OC)c(CBr)c1CBr`, for which the survivor count is 0 of 4 under setting [4], 0 of 4 under setting [5] and 0 of 4 under setting [6].
In the case of `COc1cc(/C=N/N=C(N)N)ccc1O`, for the setting “dose: 480.0 mg/kg/injection, schedule: Q01DX Z (ip), vehicle: saline”, the survivor count was 0 of 6.
For `CCOC(=O)c1c(Cl)c(Cl)c(Cl)c(Cl)c1C(=O)O`, the survivor count (dose: 400.0 mg/kg/injection, schedule: Q01DX009 (ip), vehicle: saline with Tween-80) was 2 of 6.
Turning to `COc1ccc(CC(C)=O)cc1`, the survivor count by setting is: (dose: 50.0 mg/kg/injection, schedule: Q04DX003 (ip), vehicle: saline) 6 of 6; under setting [1], 6 of 6; under setting [2], 6 of 6.
Regarding `CC(=O)Nc1ccc(S(=O)(=O)c2ccc(N)cc2)cc1`, the T/C (dose: 50.0 mg/kg/injection, schedule: Q04DX002 (ip), vehicle: saline with Tween-80) is 131 % of control.
In the case of `CCCCCCCCCCOP(=S)(N1CC1)N1CC1`, the T/C (dose: 10.0 mg/kg/injection, schedule: Q01DX Z (ip), vehicle: carboxymethylcellulose (CMC)) was 136 % of control. For the same compound, the survivor count is given as 6 of 6 (dose: 80.0 mg/kg/injection, schedule: Q01DX Z (ip), vehicle: carboxymethylcellulose (CMC)) and 5 of 6 (dose: 160.0 mg/kg/injection, schedule: Q01DX Z (ip), vehicle: carboxymethylcellulose (CMC)).
Turning to `CSc1ncnc2c1c(C#N)cn2C1OC(CO)C(O)C1O` (configuration not stated), the T/C (dose: 89.0 mg/kg/injection, schedule: Q01DX001 (ip), vehicle: saline) was 136 % of control and the T/C (dose: 133.0 mg/kg/injection, schedule: Q01DX001 (ip), vehicle: saline) is 140 % of control [5 of 6 alive]. Moreover, the survivor count under setting [7] is given as 1 of 6 and the survivor count under setting [8] is reported as 0 of 6.
As for `Oc1ccc(C2CCCCCC2)cc1`, the survivor count was 0 of 4 (dose: 50.0 mg/kg/injection, schedule: Q01DX001 (ip), vehicle: carboxymethylcellulose (CMC)); 0 of 4 under setting [4]; 0 of 4 under setting [5]; 0 of 4 under setting [6].
In the case of `O=C(O)C1CCC2CCCCC2[N-]1.O=C(O)C1CCC2CCCCC2[N-]1.[Cu+2]` (configuration not stated), the survivor count runs as follows: under setting [1], 3 of 6; under setting [2], 0 of 6; under setting [3], 0 of 6.
On to `[O-][n+]1onc2ccccc21`, for which the survivor count by setting is: (dose: 200.0 mg/kg/injection, schedule: Q01DX001 (ip), vehicle: saline with Tween-80) 1 of 6; (dose: 400.0 mg/kg/injection, schedule: Q01DX001 (ip), vehicle: saline with Tween-80) 0 of 6.
As for `Cc1cccc(Nc2c(N)nc(N)nc2N)c1`, the survivor count is listed as 2 of 6 (dose: 100.0 mg/kg/injection, schedule: Q01DX009 (ip), vehicle: saline); 6 of 6 under setting [2]; 0 of 6 under setting [3].
As to `C[n+]1ccccc1/C=C/c1cccc(O)c1`, for the setting “dose: 37.5 mg/kg/injection, schedule: Q01DX001 (ip), vehicle: other”, the survivor count was 3 of 6.
As for `COc1cc2c(cc1OC)C(=O)N(C)CC2`, where the note is “dose: 400.0 mg/kg/injection, schedule: Q01DX009 (ip), vehicle: water”, the survivor count is listed as 1 of 6.
Turning to `CN(CCN1CCCCC1)C(=O)C(c1ccccc1)C1CCCCC1` (configuration not stated), the survivor count (dose: 150.0 mg/kg/injection, schedule: Q01DX001 (ip), vehicle: saline) is recorded as 2 of 6 and the survivor count under setting [8] is 0 of 6.
Turning to `CSC(C#N)NC(=O)c1ccc([N+](=O)[O-])cc1` (configuration not stated), under setting [9], the T/C is 128 % of control [2 of 3 alive] and the survivor count is listed as 0 of 3.
Take `C=C(C)C(Br)=C(C)C`: the survivor count is given as 3 of 6 (dose: 200.0 mg/kg/injection, schedule: Q01DX001 (ip), vehicle: DMSO) and 2 of 6 (dose: 400.0 mg/kg/injection, schedule: Q01DX001 (ip), vehicle: DMSO).
Consider `O=C1NCC2(O1)c1ccccc1-c1ccccc12`, for which, for the setting “dose: 400.0 mg/kg/injection, schedule: Q04DX002 (ip), vehicle: saline with Tween-80”, the T/C was 130 % of control.
In the case of `CNC(=O)Oc1ccc2ccccc2c1[N+](=O)[O-]`, the survivor count runs as follows: (dose: 150.0 mg/kg/injection, schedule: Q01DX001 (ip), vehicle: other) 1 of 6; (dose: 300.0 mg/kg/injection, schedule: Q01DX001 (ip), vehicle: other) 0 of 6.
`ClCCN(CCCl)CCCNCCCNc1c2ccccc2nc2c1ccc1ccccc12`: the survivor count was 0 of 6 (dose: 0.08 mg/kg/injection, schedule: Q01DX Z (ip), vehicle: saline); 0 of 6 (dose: 0.16 mg/kg/injection, schedule: Q01DX Z (ip), vehicle: saline); 0 of 6 (dose: 0.31 mg/kg/injection, schedule: Q01DX Z (ip), vehicle: saline); 0 of 6 (dose: 0.62 mg/kg/injection, schedule: Q01DX Z (ip), vehicle: saline); 4 of 6 (dose: 5.0 mg/kg/injection, schedule: Q01DX Z (ip), vehicle: saline); 0 of 6 (dose: 7.5 mg/kg/injection, schedule: Q01DX Z (ip), vehicle: saline).
For `CCN1/C(=C/C=C/c2oc3ccccc3[n+]2CC)Oc2ccccc21`, the survivor count is, setting by setting: (dose: 1.6 mg/kg/injection, schedule: Q01DX009 (ip), vehicle: saline) 0 of 6; (dose: 2.0 mg/kg/injection, schedule: Q01DX001 (ip), vehicle: saline) 1 of 4; (dose: 4.0 mg/kg/injection, schedule: Q01DX001 (ip), vehicle: saline) 1 of 4; (dose: 5.0 mg/kg/injection, schedule: Q01DX001 (ip), vehicle: saline) 0 of 4; (dose: 8.0 mg/kg/injection, schedule: Q01DX001 (ip), vehicle: saline) 0 of 4; (dose: 10.0 mg/kg/injection, schedule: Q01DX001 (ip), vehicle: saline) 0 of 4. Besides, the survivor count (dose: 20.0 mg/kg/injection, schedule: Q01DX001 (ip), vehicle: saline) is 0 of 4; the survivor count (dose: 40.0 mg/kg/injection, schedule: Q01DX001 (ip), vehicle: saline) was 0 of 4; the survivor count (dose: 50.0 mg/kg/injection, schedule: Q01DX001 (ip), vehicle: saline) is reported as 0 of 4; the survivor count (dose: 80.0 mg/kg/injection, schedule: Q01DX001 (ip), vehicle: saline) is 0 of 4; the survivor count (dose: 100.0 mg/kg/injection, schedule: Q01DX001 (ip), vehicle: saline) is on record as 0 of 4; the survivor count under setting [7] was 0 of 4. Moreover, for the setting “dose: 400.0 mg/kg/injection, schedule: Q01DX001 (ip), vehicle: saline”, the survivor count was 0 of 4.
Take `CC1(C)CCc2ccccc2C1`: the survivor count (dose: 200.0 mg/kg/injection, schedule: Q01DX009 (ip), vehicle: saline with Tween-80) is reported as 3 of 3.
`N=c1ncn(Cc2ccccc2)c2nc[nH]c12`: where the note is “dose: 400.0 mg/kg/injection, schedule: Q01DX009 (ip), vehicle: Klucel (hydroxypropylcellulose) (HPC)”, the survivor count is 0 of 6.
For `CCCCCCCCCCCC(=O)NC(=S)Nc1cccc(F)c1`, for the setting “dose: 400.0 mg/kg/injection, schedule: Q04DX003 (ip), vehicle: Klucel (hydroxypropylcellulose) (HPC)”, the survivor count is 0 of 6.
`C=CCNC(=O)C1C2C=CC(C2)C1C(=O)NCC=C` (configuration not stated): where the note is “dose: 400.0 mg/kg/injection, schedule: Q04DX003 (ip), vehicle: saline with Tween-80”, the survivor count is 0 of 3.
